For some of these results: The comparison behind a weaker result is the experiment's own reference, which may not be listed here. For some of these results: Results from cells or extracts need not show a direct contact. For some of these results: Construct, isoform or probe ends are uncertain for at least one entry.
Tests used:
annexin 2 (Homo sapiens) [1] = target: annexin 2 (Homo sapiens) (UniProt P07355); test: competition with a labelled probe; settings: 2'-F pyrimidines; ER4 and ACE8 compete, suggesting annexin 2 is also the ER4 target; ER4 strong affinity for MCF-7 cells; protein on the cell surface
annexin 2 (Homo sapiens) [2] = target: annexin 2 (Homo sapiens) (UniProt P07355); test: binding assay; settings: 2'-F pyrimidines, 2'-OH purines; MCF-7 cells, radiolabeled cell binding, Scatchard; Cmax 484 pM; target assigned as annexin 2; protein on the cell surface
annexin 2 (Homo sapiens) [3] = target: annexin 2 (Homo sapiens) (UniProt P07355); test: activity in cells; settings: 2'-F pyrimidines, 2'-OH purines; 5 uM ACE8 strongly inhibits HUVEC endothelial tube formation on Matrigel; target not directly verified in this assay; protein on the cell surface
[4] = system: annexin 2/S100A10 heterotetrameric complex (Bos taurus); test: filter binding; settings: 2'-F pyrimidines; control sequence, same conditions; purified native protein; protein details: purified from bovine lung, Interchim A80109B; label: 32P or fluorescent

Chains of the proteins cited; added tags and fusions are not shown. Chains listed by the source or under a name are the forms on record and can include a tag or linker. Residues count along the entry.
UniProt P07355, 2-339: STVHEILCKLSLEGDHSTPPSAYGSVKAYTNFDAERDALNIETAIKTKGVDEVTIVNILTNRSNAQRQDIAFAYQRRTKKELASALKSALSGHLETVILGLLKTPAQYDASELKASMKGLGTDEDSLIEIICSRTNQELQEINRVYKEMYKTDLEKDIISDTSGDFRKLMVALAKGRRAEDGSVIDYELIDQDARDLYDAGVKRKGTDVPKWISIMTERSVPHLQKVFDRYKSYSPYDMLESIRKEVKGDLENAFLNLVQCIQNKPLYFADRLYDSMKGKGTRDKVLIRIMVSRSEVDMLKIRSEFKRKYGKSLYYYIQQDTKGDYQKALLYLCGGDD
annexin 2/S100A10 heterotetrameric complex (Bos taurus), one chain, as listed by the source, chain 1 of 2: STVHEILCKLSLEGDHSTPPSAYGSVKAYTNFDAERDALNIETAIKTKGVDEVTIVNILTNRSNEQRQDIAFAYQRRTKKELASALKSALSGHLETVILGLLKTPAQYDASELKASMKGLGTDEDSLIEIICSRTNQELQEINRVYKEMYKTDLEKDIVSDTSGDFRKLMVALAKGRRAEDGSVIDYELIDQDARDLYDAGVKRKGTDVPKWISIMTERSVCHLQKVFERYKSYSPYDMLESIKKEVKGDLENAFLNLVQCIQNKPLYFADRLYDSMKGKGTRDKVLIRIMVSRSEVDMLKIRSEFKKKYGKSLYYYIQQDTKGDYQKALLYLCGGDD
annexin 2/S100A10 heterotetrameric complex (Bos taurus), one chain, as listed by the source, chain 2 of 2: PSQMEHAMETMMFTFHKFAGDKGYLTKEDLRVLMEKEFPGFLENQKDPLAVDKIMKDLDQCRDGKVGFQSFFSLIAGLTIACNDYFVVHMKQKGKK

Question: Does “GGGAGAUGAUCCGUUGAUGCGAGAGCUAGGCCGCAAGGUGCCUCAACGCCAUCUGAGUGCCGACCCGAUCGCAAGUCGUCGUUCGUAGGCAGAAUC [ER4]” bind (annexin 2 (Homo sapiens) [1])?
Answer: binds

Question: With “GGGAGAUGAUCCGUUGAUGCGAGGGAACGCAAGAACUGAGGCCAUGAGGCGCCUUCCCUUGCUCAGGACGCAAGUCGUCGUUCGUAGGCAGAAUC [ACE8]” as the sequence, how does the Kd (annexin 2 (Homo sapiens) [2]) read?
Answer: 4.9 nM

Question: And the “functional effect of the aptamer” value (annexin 2 (Homo sapiens) [3])?
Answer: active

Question: Does “GGGAGAUGAUCCGUUGAUGCGAGGAUCCCUACGACCUCGUAGCACACACAUAGGUGCACUCACCCGGCUGACCAAGUCGUCGUUCGUAGGCAGAAUC [control sequence]” bind [4]?
Answer: binds more weakly

— patent publication US20130266515
